Measurements reported in patent US20250281627A1, “CANCER-TARGETING PEPTIDE, PRODRUG NANOPARTICLES COMPRISING SAME, AND PHARMACEUTICAL COMPOSITION COMPRISING SAME FOR CANCER PREVENTION OR TREATMENT” (priority 2022, published 2025).
Not every detail of the peptide structures is certain; ends, links or a residue may be inferred. Residues, ends and D or L forms follow the SMILES beside them. *: point of attachment. Doxorubicin(3'-N) = COc1cccc2c1C(=O)c1c(O)c3c(c(O)c1C2=O)C[C@@](O)(C(=O)CO)C[C@@H]3O[C@H]1C[C@H](N*)[C@H](O)[C@H](C)O1

Experiments:
HT29 cells = assay: Degradation after cellular uptake (MALDI-TOF of cell filtrate); type: cell-based, human; settings: 100 μM, 48 hours
Procedure: In order to further investigate whether the prodrug nanoparticles are degraded after cellular uptake, 1×10^6 HT29 cells were seeded onto a 100-mm cell culture dish and stabilized by culturing for 24 hours. After administering the prodrug nanoparticles of Examples 4 to 6 and Comparative Example 3 (100 μM) to the cells, drug administration groups 1, 2 and 3 (FRRL-DOX, FRRLG-DOX, FLRRG-DOX) and a control group (FRRG-DOX) were obtained by incubating at 37° C. for 48 hours. Each group was washed with PBS and dispersed in distilled water (H2O). The dispersion was filtered through a 0.45-μm syringe filter, and the recovered filtrate was subjected to mass analysis by MALDI-TOF.

[1] = test system: Cathepsin B-inhibited cells (HT29-Inh); assay: Cell-specific activity, DOX fluorescence distribution (CLSM); type: cell-based, human; settings: HT29-Inh cells (Z-Phe-Ala-FMK 20 μM pretreated), 5 μM, 48 hours
Procedure: (§1) Then, experiment was performed as follows to analyze specific activity for cells. First, 2×10^5 HT29 cells and 2×10^5 H9C2 cells were seeded onto a glass-bottomed confocal dish, respectively. Cathepsin B-inhibited cells (HT29-Inh) were prepared by pretreating HT29 cells with Z-Phe-Ala-FMK (20 μM) for 24 hours. After stabilizing the cells by culturing for 24 hours, and administering the anticancer agent (DOX) alone (5 μM) or together with the prodrug nanoparticles of Example 4 and Comparative Example 3 (5 μM), respectively, a single administration group, drug administration groups and a control group were obtained by incubating at 37° C. for 48 hours. […] Each group was imaged by CLSM to obtain a fluorescence image, and fluorescence intensity was quantified from the fluorescence image to investigate the distribution of the prodrug nanoparticles using the Image-Pro software (Media Cybernetics, Rockville, MD, USA).

H9C2 cells = assay: as above; type: cell-based, rat; settings: 5 μM, 48 hours
Procedure: as §1

HT29 colon cancer cells = assay: Cellular uptake and intranuclear localization (CLSM); type: cell-based, human; settings: 5 μM
Procedure: The cellular uptake and intranuclear localization of the prodrug nanoparticles (5 μM) were analyzed using HT29 colon cancer cells. In order to investigate the intracellular behavior and intracellular interaction of the prodrug nanoparticles, 2×10^5 HT29 cells were seeded onto a glass-bottomed confocal dish. After stabilizing the cells by culturing for 24 hours, they were treated with the prodrug nanoparticles of Examples 4 to 6 and Comparative Example 3 (5 μM), and drug administration groups 1, 2 and 3 (FRRL-DOX, FRRLG-DOX, FLRRG-DOX) and a control group (FRRG-DOX) were obtained by incubating at 37° C. for 0, 24 and 48 hours. […] Each group was imaged by CLSM to obtain a fluorescence image, and fluorescence intensity was quantified from the fluorescence image to investigate the distribution of the prodrug nanoparticles using the Image-Pro software (Media Cybernetics, Rockville, MD, USA).

[2] = Long-term storability (colloidal stability) of prodrug nanoparticles in saline; type: physicochemical; settings: storage in saline, DLS

With COc1cccc2c1C(=O)c1c(O)c3c(c(O)c1C2=O)C[C@@](O)(C(=O)CO)C[C@@H]3O[C@H]1C[C@H](NC(=O)CNC(=O)[C@H](CCCNC(=N)N)NC(=O)[C@H](CCCNC(=N)N)NC(=O)[C@H](Cc2ccccc2)NC(C)=O)[C@H](O)[C@H](C)O1 [Comparative Example 3, reference compound] (Ac-FRRG-{Doxorubicin(3'-N)}) the “degradation of prodrug nanoparticles in the cancer cells (MALDI-TOF)” value (HT29 cells) was “completely degraded”, the “location of fluorescence of anticancer agent (DOX)” value [1] was “only in the cytoplasm” and the “location of fluorescence of anticancer agent (DOX)” value (H9C2 cells) was “only in the cytoplasm”. The “location of red fluorescence (DOX) in the cells” value (HT29 colon cancer cells; confocal images) was “in the nucleus”, the “cellular uptake of the anticancer agent” value (HT29 colon cancer cells; from 24 hours) was “high cellular uptake” and the “dispersibility stably maintained up to” value [2] was 72 h.
